# Hit rate of the full screen: of about 340,000 compounds, about 6,200 (1.8%) were called active. This list was built around the results that the source calls inconclusive (neither active nor inactive); the mix of calls is not that of the screen. Calls come from the whole dose curve; as a rule, active = well fitted activation curve with a large enough effect; inconclusive = small, poorly fitted or top-dose-only effect; inactive = no such curve, though single readings can be large or run the other way. Potencies of inconclusive entries are doubtful fits and often do not repeat.
# Assay: A quantitative high throughput screen for small molecules that induce DNA re-replication in SW480 colon adenocarcinoma cells. For re-replication activation: % of control where 0% means no effect. Note: nearly all actives have a fitted effect of over 55% in size.
# Conditions: Hoechst DNA content imaging, 48 h; re-replication activation: at 46.1 µM (top of the series)
# In short: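 Image-based read-out: total Hoechst fluorescence of nuclei (405 nm excitation, 500-530 nm emission), with hits raising the fraction of high-intensity nuclei. SW480 colon cells incubated 48 hr with compounds at 37 C.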
# Potency is the fitted concentration of half-maximal effect.
SMILES,Potency,re-replication activation
N=C1SCC(=O)N1/N=C/c1ccccc1,"inconclusive: 0.0065 µM [activator, full curve, poor fit]",
O=C1c2ccccc2C(O)(c2ncc[nH]2)N1CCc1ccccc1 (stereo not drawn),"inconclusive: 29.1 µM [activator, single point]",
O=c1[nH]c2ccc(Cl)cc2c(-c2ccccc2)c1N1CCN(c2ccccn2)CC1,"inconclusive: 29.1 µM [activator, single point]",
CC1=NNC(=O)C1CCC(=O)N/N=C\c1ccc(Cl)c(Cl)c1 (stereo not drawn),"inconclusive: 0.0651 µM [activator, full curve, poor fit]",
O=c1[nH]c(C2CCN(S(=O)(=O)Cc3ccccc3)CC2)nc2c1nnn2Cc1cccc(Cl)c1,"inconclusive: 18.4 µM [activator, single point]",
Cc1ccc(S(=O)(=O)N2CCCOC2CNC(=O)C(=O)NCc2cccs2)cc1 (stereo not drawn),"inconclusive: 32.6 µM [activator, partial curve, poor fit]",
CC(=O)N1CCCc2cc(S(=O)(=O)CCC(=O)Nc3cccc(C)c3C)ccc21,,inactive: -28.3%
CCOC(=O)[C@H]1[C@H]2COc3ccccc3[C@@H]2N2C(=O)c3cc(OC)ccc3NC(=O)[C@@]12C,,inactive: -7.36%
Cc1ccc(CN2CCN(Cc3nc(C(C)C)cs3)CC2CCO)cc1 (stereo not drawn),,inactive: -6.27%
COc1ccc(CCNC(=O)c2ccc(CN3CCC(Cc4ccccc4)CC3)cc2)cc1,,inactive: -10.5%
COc1ccc(-c2c[n+]3c(n2-c2ccccc2)SCC3)cc1,,inactive: -3.69%
COc1ccc(NC(=O)CSCc2ccc(C)cc2)cc1,,inactive: 18.8%
COC(=O)c1cn(-c2ccccc2)nc1-c1ccncc1,,inactive: -3.67%
NNc1nncc2ccccc12,,inactive: 0.0311% [at 20.6 µM]
CCCCNC(=S)Nc1ccc2nc(N3CCN(CC)CC3)cc(C)c2c1,"inconclusive: 29.1 µM [activator, single point]",
CCOc1ccc(NC(=O)Nc2cccc(C(=O)O)c2)cc1,,inactive: -4.57%
Cc1cc(C(=O)N/N=C/c2ccc(N(C)C)cc2)c2ccccc2n1,active: 18.4 µM,
Cc1nc(Nc2ccc3c(c2)OCCO3)c2oc3ccccc3c2n1,"inconclusive: 16.4 µM [activator, partial curve]",
CC/C(=N/N=C(\CC)c1ccccc1)c1ccccc1,"inconclusive: 0.164 µM [activator, full curve, poor fit]",
CS(=O)(=O)N(CC(=O)N1CCCC1)c1cccc(F)c1,,inconclusive: 89.7% [activator]
CCOC(=O)CN=C/C(C(C)=O)=C(/C)O,,inactive: -18.6%
CCOc1ccc2[nH]c3c(NCCC(C)C)ncnc3c2c1,"inconclusive: 0.651 µM [activator, full curve, poor fit]",
Cn1nnc2c[n+](CC(=O)c3ccc(Cl)cc3)cc(Br)c21,"inconclusive: 18.4 µM [activator, single point]",
O=C1CCCC2=C1Sc1ccccc1N2,"inconclusive: 20.6 µM [activator, single point]",

# As entered above.
# O=c1[nH]c(C2CCN(S(=O)(=O)Cc3ccccc3)CC2)nc2c1nnn2Cc1cccc(Cl)c1 – Potency: inconclusive: 18.4 µM [activator, single point]
# CCOC(=O)CN=C/C(C(C)=O)=C(/C)O – re-replication activation: inactive: -18.6%

# (further entries)

SMILES,Potency,re-replication activation
CCCCNC(=O)C(C)N(CCN(C)C)C(=O)CCCN1C(=O)NC(c2ccc([N+](=O)[O-])cc2)C(C(=O)OCc2ccccc2)=C1C (stereo not drawn),,inactive: -72.9%
CCc1nc2ccccc2c(=O)n1/N=C/c1ccc(Cl)cc1,,inactive: -54.1%
CCSc1nc(-c2ccc(OC)cc2)cc(-c2ccc(OC)cc2)c1C#N,"inconclusive: 29.1 µM [activator, single point]",
O=[N+]([O-])c1ccccc1OCCCOc1cccc2cccnc12,,inactive: 9.47%
CCOc1cc(/C=N/NC(=O)c2cc(-c3ccccc3)nc3ccccc23)ccc1O,"inconclusive: 2 µM [activator, partial curve, poor fit]",
CCCCn1c(N)c(N(CC(C)C)C(=O)C2CCN(S(=O)(=O)c3ccccc3)CC2)c(=O)[nH]c1=O,"inconclusive: 25.9 µM [activator, single point]",
CCCCn1nc(NC(=O)CC(C)C)c2cc3cc(OC)ccc3nc21,active: 11.6 µM,
CCC1COCCS(=O)(=O)N1Cc1ccc(F)cc1 (stereo not drawn),,inactive: -3.72%
Fc1cccc(F)c1/C=N/NC(=S)Nc1cccnc1,,inactive: -0.25%
COc1cc(/C=C/C(=O)OC2CC3CCC2(C)C3(C)C)ccc1O (stereo not drawn),,inactive: 15%
Cc1ccccc1CCNC(=O)C1CC(O)CN1C(=O)Nc1ccccc1 (stereo not drawn),"inconclusive: 0.0041 µM [activator, partial curve, poor fit]",
COc1ccccc1NC(=O)CSc1nnc(Cc2ccccc2)o1,,inactive: -16.5%
Cn1c(N)c(C(=O)COC(=O)C2(c3ccc(Cl)cc3)CCCC2)c(=O)n(C)c1=O,"inconclusive: 29.1 µM [activator, single point]",
COc1ccc2nc(SCC(=O)N(C)C3CCCCC3)c(C#N)cc2c1,"inconclusive: 29.1 µM [activator, single point]",
O=C(c1ccco1)N1CCN(Cc2cccc([N+](=O)[O-])c2)CC1,,inactive: -21.8%
COc1ccc(C(=O)NCc2nnc(SCC(=O)Nc3nc4ccc(C)cc4s3)o2)cc1OC,"inconclusive: 3.66 µM [activator, single point]",
CCOC(=O)Cc1csc(NC(=O)c2cc(-c3ccncc3)nc3ccccc23)n1,"inconclusive: 1.64 µM [activator, partial curve, poor fit]",
O=C(N=c1nc2ccccn2s1)c1ccccc1,"inconclusive: 29.1 µM [activator, single point]",
CC1(C)CC(=O)C2=C(C1)c1c(ccc3ccccc13)NC2c1ccc(C(=O)O)cc1 (stereo not drawn),"inconclusive: 18.4 µM [activator, single point]",
O=C(Nc1ccc(-n2nncc2-c2ccco2)cc1)c1ccc(F)cc1,"inconclusive: 18.4 µM [activator, partial curve, poor fit]",
O=c1c2ccccc2[nH]c(=S)n1CCN1CCN(Cc2ccccc2)CC1,,inactive: -0.821%
CC(=O)C1=NN(c2ccccc2)C(c2ccc3c(c2)OCO3)N1c1ccccc1 (stereo not drawn),active: 5.8 µM,
COc1ccc(/C=C/C(=O)NC(=S)Nc2ccccc2C(=O)NC2CCCCC2)cc1,active: 4.11 µM,
O=C(c1ccccc1)c1ccc(OCC(O)CN2CCN(Cc3ccccc3)CC2)cc1 (stereo not drawn),"inconclusive: 20.6 µM [activator, single point]",

# Entries shown so far with an NH in an aromatic ring:
SMILES,Potency,re-replication activation
O=C1c2ccccc2C(O)(c2ncc[nH]2)N1CCc1ccccc1 (stereo not drawn),"inconclusive: 29.1 µM [activator, single point]",
O=c1[nH]c2ccc(Cl)cc2c(-c2ccccc2)c1N1CCN(c2ccccn2)CC1,"inconclusive: 29.1 µM [activator, single point]",
O=c1[nH]c(C2CCN(S(=O)(=O)Cc3ccccc3)CC2)nc2c1nnn2Cc1cccc(Cl)c1,"inconclusive: 18.4 µM [activator, single point]",
CCOc1ccc2[nH]c3c(NCCC(C)C)ncnc3c2c1,"inconclusive: 0.651 µM [activator, full curve, poor fit]",
CCCCn1c(N)c(N(CC(C)C)C(=O)C2CCN(S(=O)(=O)c3ccccc3)CC2)c(=O)[nH]c1=O,"inconclusive: 25.9 µM [activator, single point]",
O=c1c2ccccc2[nH]c(=S)n1CCN1CCN(Cc2ccccc2)CC1,,inactive: -0.821%
